Measurements: the supplement of paper PMC12819154, “High-throughput peptide-centric local stability assay extends protein–ligand identification to membrane proteins, tissues and bacteria” (Nature Structural & Molecular Biology, 2025)
Some of the results follow. Most values lie at the level of the controls, where differences are scatter.

Protein sequences, listed by entry. Tags and fused reporters are not part of them. Lines headed by an entry give the natural chain unless they say otherwise; changes in a name come on top.
UniProt Q8WV60: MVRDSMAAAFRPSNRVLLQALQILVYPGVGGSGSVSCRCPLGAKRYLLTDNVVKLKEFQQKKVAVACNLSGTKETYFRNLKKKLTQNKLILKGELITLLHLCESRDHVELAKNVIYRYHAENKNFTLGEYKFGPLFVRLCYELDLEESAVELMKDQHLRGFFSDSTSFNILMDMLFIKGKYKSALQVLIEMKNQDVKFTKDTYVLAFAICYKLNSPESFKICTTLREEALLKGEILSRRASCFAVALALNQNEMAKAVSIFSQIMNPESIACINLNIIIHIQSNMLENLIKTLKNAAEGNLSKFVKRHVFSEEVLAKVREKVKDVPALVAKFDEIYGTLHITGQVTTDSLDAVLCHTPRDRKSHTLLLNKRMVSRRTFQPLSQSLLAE
UniProt Q92545: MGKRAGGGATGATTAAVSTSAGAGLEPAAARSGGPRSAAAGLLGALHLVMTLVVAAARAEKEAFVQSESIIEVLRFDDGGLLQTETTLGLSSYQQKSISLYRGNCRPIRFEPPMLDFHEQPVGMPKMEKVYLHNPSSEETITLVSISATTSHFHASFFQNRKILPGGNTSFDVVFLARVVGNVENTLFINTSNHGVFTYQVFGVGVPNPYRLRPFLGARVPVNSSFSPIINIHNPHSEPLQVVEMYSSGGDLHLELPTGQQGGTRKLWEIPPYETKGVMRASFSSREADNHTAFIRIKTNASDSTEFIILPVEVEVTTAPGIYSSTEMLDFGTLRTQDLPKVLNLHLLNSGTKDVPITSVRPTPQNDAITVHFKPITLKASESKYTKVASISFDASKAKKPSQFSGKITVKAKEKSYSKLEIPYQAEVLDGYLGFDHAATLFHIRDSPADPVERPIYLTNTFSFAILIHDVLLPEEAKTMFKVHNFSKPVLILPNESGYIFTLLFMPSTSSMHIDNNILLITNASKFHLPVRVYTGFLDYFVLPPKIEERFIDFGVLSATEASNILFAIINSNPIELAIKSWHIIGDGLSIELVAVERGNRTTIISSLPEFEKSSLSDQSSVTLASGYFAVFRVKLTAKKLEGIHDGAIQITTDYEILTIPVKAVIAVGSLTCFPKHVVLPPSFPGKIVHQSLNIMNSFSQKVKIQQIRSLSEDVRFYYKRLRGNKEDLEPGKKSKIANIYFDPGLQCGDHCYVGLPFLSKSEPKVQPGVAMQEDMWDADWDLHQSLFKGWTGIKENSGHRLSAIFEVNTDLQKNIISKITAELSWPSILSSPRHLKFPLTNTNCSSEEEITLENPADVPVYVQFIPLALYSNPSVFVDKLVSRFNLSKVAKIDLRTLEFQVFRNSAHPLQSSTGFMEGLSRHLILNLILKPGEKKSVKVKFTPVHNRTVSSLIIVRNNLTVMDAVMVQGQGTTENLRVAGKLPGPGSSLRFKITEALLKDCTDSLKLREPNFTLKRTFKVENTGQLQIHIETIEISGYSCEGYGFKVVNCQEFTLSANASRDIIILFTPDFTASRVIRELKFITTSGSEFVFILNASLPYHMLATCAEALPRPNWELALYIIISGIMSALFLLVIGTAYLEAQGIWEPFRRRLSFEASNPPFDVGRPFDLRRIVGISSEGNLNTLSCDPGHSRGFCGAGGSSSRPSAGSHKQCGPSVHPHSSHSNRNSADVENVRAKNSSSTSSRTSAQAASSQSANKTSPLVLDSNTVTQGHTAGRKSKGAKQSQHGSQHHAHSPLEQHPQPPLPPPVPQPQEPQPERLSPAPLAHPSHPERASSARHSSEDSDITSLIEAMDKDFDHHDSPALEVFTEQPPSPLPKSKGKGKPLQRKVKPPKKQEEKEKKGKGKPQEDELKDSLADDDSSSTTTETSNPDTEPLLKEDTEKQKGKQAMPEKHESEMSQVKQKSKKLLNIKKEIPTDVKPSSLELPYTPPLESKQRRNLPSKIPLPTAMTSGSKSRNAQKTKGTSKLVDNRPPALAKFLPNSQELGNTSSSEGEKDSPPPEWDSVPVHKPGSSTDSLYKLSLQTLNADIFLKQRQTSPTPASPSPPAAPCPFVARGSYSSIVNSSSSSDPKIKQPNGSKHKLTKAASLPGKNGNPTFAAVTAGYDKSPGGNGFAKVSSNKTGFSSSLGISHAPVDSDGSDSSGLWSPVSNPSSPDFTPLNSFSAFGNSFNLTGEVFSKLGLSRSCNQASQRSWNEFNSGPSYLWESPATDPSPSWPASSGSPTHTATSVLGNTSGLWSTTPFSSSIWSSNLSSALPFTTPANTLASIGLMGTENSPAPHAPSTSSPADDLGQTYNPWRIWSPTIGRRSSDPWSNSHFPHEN
UniProt Q8WZ19: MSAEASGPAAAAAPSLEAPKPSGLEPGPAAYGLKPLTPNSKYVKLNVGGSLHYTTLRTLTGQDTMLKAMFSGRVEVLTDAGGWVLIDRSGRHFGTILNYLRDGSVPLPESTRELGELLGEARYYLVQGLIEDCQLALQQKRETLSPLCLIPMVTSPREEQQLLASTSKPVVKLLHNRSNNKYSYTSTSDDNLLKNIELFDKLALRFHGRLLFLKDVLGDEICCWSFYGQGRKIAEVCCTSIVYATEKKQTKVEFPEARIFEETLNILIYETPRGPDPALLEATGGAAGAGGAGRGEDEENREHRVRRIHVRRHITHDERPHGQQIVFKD
UniProt Q8WWV3: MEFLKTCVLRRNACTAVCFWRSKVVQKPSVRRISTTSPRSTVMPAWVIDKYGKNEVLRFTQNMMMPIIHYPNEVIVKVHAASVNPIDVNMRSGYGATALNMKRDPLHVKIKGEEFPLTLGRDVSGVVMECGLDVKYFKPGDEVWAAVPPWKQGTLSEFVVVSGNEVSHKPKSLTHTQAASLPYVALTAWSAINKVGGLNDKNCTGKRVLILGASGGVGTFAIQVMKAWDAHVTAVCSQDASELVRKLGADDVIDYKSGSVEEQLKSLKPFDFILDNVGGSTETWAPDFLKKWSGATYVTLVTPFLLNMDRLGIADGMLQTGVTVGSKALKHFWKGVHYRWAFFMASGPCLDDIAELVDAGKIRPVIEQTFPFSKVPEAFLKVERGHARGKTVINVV
UniProt Q8WVT3: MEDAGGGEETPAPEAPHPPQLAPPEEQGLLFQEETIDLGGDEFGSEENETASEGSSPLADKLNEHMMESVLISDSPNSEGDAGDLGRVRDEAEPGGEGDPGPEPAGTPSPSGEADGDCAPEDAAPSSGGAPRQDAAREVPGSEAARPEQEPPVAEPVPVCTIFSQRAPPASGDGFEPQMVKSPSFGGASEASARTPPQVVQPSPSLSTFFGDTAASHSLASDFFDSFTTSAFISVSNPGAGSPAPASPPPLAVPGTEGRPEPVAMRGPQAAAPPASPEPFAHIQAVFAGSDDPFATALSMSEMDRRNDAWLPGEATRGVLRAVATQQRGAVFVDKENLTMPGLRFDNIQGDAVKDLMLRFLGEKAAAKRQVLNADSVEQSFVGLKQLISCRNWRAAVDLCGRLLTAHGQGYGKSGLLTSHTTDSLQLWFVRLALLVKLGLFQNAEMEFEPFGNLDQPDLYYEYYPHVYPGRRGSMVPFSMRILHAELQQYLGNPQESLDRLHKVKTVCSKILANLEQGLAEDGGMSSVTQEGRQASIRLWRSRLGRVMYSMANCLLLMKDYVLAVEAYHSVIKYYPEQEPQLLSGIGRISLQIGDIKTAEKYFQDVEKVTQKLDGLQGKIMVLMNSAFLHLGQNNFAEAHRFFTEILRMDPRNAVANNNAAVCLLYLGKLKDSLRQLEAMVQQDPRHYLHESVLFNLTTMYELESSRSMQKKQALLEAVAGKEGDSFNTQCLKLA
UniProt Q8TB72: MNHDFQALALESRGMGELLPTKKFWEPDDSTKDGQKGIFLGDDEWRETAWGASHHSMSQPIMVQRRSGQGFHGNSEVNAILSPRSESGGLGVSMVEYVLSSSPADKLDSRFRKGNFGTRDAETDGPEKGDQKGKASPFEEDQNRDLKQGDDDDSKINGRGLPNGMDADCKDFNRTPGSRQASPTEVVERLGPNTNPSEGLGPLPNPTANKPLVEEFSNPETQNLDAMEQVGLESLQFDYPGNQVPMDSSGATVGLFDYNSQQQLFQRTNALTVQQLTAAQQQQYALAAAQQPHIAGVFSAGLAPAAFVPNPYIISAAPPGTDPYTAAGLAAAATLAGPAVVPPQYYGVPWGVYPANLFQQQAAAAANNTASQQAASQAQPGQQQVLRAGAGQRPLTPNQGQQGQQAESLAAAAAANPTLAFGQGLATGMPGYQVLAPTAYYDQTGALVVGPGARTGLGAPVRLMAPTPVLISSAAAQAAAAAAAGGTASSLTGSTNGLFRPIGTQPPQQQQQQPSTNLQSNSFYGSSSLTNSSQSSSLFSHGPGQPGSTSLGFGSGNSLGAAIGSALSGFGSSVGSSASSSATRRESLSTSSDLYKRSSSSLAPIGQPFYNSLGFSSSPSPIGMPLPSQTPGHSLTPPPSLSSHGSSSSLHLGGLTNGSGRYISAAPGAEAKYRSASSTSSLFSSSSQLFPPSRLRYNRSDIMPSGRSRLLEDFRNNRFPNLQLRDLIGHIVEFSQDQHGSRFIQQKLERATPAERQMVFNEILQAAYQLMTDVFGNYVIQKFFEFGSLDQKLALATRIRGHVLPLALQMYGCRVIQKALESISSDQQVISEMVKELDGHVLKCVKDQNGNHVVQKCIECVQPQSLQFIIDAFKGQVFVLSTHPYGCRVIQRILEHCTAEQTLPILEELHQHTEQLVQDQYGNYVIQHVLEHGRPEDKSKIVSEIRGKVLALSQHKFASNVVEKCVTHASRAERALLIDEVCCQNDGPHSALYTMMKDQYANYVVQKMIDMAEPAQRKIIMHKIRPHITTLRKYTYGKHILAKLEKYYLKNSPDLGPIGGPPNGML
UniProt Q92611: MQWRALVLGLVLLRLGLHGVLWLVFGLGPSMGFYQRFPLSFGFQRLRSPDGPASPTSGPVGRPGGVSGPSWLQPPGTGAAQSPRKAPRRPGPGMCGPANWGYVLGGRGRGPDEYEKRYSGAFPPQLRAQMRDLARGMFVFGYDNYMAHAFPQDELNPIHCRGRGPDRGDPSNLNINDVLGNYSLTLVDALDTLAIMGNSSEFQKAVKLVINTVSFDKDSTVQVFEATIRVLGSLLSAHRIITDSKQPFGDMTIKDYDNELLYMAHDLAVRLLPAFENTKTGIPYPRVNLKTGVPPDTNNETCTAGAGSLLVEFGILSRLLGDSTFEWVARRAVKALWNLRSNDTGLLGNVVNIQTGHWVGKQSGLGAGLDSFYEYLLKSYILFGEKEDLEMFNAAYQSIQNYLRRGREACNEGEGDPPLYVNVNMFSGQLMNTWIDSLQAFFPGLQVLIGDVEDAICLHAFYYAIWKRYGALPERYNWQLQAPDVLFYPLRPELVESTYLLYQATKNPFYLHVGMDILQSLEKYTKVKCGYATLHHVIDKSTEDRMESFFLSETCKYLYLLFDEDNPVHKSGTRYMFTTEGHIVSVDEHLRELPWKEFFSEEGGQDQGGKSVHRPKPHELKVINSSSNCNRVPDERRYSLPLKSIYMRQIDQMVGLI
UniProt Q8TF68: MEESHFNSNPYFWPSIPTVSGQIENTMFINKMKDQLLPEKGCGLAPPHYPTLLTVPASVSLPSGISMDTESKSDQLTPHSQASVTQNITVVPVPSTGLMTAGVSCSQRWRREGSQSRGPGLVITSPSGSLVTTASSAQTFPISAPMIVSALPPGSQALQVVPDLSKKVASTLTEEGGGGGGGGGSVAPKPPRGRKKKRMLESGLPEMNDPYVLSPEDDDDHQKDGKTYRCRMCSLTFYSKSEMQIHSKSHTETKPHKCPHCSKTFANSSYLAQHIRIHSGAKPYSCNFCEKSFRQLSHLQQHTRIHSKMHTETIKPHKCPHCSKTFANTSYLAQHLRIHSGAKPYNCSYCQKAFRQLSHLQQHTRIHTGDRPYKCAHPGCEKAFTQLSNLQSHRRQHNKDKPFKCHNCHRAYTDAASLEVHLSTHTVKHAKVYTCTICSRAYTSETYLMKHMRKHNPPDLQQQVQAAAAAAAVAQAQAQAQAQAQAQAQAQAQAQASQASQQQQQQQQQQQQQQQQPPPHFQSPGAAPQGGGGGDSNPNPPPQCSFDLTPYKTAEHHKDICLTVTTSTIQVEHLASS
UniProt Q8TAV0: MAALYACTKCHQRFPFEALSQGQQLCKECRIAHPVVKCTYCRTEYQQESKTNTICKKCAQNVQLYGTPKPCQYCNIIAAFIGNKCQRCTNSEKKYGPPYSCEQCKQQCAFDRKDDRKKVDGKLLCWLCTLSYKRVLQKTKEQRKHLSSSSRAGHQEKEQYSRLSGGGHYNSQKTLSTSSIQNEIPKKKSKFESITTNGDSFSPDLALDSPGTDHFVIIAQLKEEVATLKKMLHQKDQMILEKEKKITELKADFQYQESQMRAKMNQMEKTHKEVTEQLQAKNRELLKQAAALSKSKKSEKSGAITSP

What follows are targets tested with Cc1nc(Nc2ncc(C(=O)Nc3c(C)cccc3Cl)s2)cc(N2CCN(CCO)CC2)n1 [dasatinib] (assay: log2 fold change of tryptic peptide abundance, ligand vs vehicle (limited proteolysis) (log2 ratio); higher = more trypsin-susceptible (destabilized)). Details: ligand concentration: 5 uM; sample: K562 cleared lysate.
Target “PTCD2 (peptide sequence: SHTLLLNK, peptide start residue: 363) (UniProt Q8WV60)” has a log2 fold change of 0.398. In the case of “UniProt Q8WWC4 (peptide sequence: EFTQGVKPDWTIAR, peptide start residue: 270)”, the log2 fold change is reported as -0.101. Work on “NUP133 (peptide sequence: IEEMAEQER, peptide start residue: 992) (UniProt Q8WUM0)” yielded a log2 fold change of 0.466. Target “NOC3L (peptide sequence: MHIAALASAILSDPENNIKK, peptide start residue: 216) (UniProt Q8WTT2)” has a log2 fold change of 0.734. Work on “TMEM131 (peptide sequence: KQEEKEK, peptide start residue: 1396) (UniProt Q92545)” yielded a log2 fold change of 0.221. “ZNF526 (peptide sequence: RTAHSPASATHPFHCSQCQR, peptide start residue: 293) (UniProt Q8TF50)” was tested, and the log2 fold change was 0.449. In the case of “KCTD13 (peptide sequence: LNVGGSLHYTTLR, peptide start residue: 45) (UniProt Q8WZ19)”, the log2 fold change is reported as 0.18. For “SCFD1 (peptide sequence: LIDLHTNVATAVLEHIK, peptide start residue: 398) (UniProt Q8WVM8)”, the log2 fold change was 0.411. In the case of “PARD3B (peptide sequence: LGTPLLVR, peptide start residue: 131) (UniProt Q8TEW8)”, the log2 fold change is reported as -0.122. In the case of “BCL7C (peptide sequence: KVMATIEK, peptide start residue: 20) (UniProt Q8WUZ0)”, the log2 fold change is reported as -0.177. Work on “ATXN2L (peptide sequence: MYPPRSPK, peptide start residue: 444) (UniProt Q8WWM7)” yielded a log2 fold change of -0.198. For “TBCK (peptide sequence: ICILDGGINK, peptide start residue: 870) (UniProt Q8TEA7)”, the log2 fold change was -0.191. For “RNASEH2C (peptide sequence: FIGATANFSR, peptide start residue: 119) (UniProt Q8TDP1)”, the log2 fold change was 0.136. For “UniProt Q8TEB1 (peptide sequence: ELEFNEIK, peptide start residue: 103)”, the log2 fold change was 0.66. “METTL6 (peptide sequence: LGENFYVR, peptide start residue: 206) (UniProt Q8TCB7)” gave a log2 fold change of -0.109. In the case of “RTN4IP1 (peptide sequence: VHAASVNPIDVNMR, peptide start residue: 78) (UniProt Q8WWV3)”, the log2 fold change is reported as -0.228. “PHIP (peptide sequence: GSISSTSEVHSPPNVGLR, peptide start residue: 673) (UniProt Q8WWQ0)” was tested, and the log2 fold change was 0.561. In the case of “UniProt Q92599 (peptide sequence: RELEEETNAFNRR, peptide start residue: 389)”, the log2 fold change is reported as 0.669. “ZFPM2 (peptide sequence: GHDKDFSTQTK, peptide start residue: 641) (UniProt Q8WW38)” was tested, and the log2 fold change was -0.916. “DNAJB14 (peptide sequence: NGSTAGNSPHCR, peptide start residue: 53) (UniProt Q8TBM8)” showed a log2 fold change of 0.224. With “ZNF592 (peptide sequence: RSQPQLTQMSVPLVHQVKK, peptide start residue: 528) (UniProt Q92610)” the log2 fold change was -0.608. In the case of “PNPT1 (peptide sequence: KVLQSPATTVVR, peptide start residue: 750) (UniProt Q8TCS8)”, the log2 fold change is reported as 0.181. In the case of “SNX29 (peptide sequence: ESTQNVTSLLK, peptide start residue: 198) (UniProt Q8TEQ0)”, the log2 fold change is reported as -0.247. With “UniProt Q8WZ60 (peptide sequence: LADTHSLDSLK, peptide start residue: 180)” the log2 fold change was -0.338. “UniProt Q8WVT3 (peptide sequence: YFQDVEK, peptide start residue: 602)” gave a log2 fold change of -0.151. With “PUM2 (peptide sequence: ESLSTSSDLYK, peptide start residue: 586) (UniProt Q8TB72)” the log2 fold change was -0.204. Target “PYROXD1 (peptide sequence: IHLETMCEVKKIYLQDEFR, peptide start residue: 255) (UniProt Q8WU10)” has a log2 fold change of 0.176. In the case of “EDEM1 (peptide sequence: YMFTTEGHIVSVDEHLR, peptide start residue: 575) (UniProt Q92611)”, the log2 fold change is reported as 0.409. With “RGP1 (peptide sequence: LMAATSCR, peptide start residue: 202) (UniProt Q92546)” the log2 fold change was 0.415. Work on “ELMO1 (peptide sequence: DIIFELR, peptide start residue: 322) (UniProt Q92556)” yielded a log2 fold change of 0.409. “PHF10 (peptide sequence: SDEVIDLMIK, peptide start residue: 143) (UniProt Q8WUB8)” showed a log2 fold change of 0.379. For “SMAP2 (peptide sequence: LEPVVFEK, peptide start residue: 153) (UniProt Q8WU79)”, the log2 fold change was -0.0796. With “UniProt Q8TCY9 (peptide sequence: VSSTDSDSFVKR, peptide start residue: 419)” the log2 fold change was 0.488. “GADD45GIP1 (peptide sequence: EQHIAECMAK, peptide start residue: 118) (UniProt Q8TAE8)” gave a log2 fold change of 0.134. “TBC1D5 (peptide sequence: SMIEQDVKR, peptide start residue: 161) (UniProt Q92609)” gave a log2 fold change of -0.276. For “TBC1D22A (peptide sequence: LSWSGIPKPVRPMTWK, peptide start residue: 218) (UniProt Q8WUA7)”, the log2 fold change was 0.252. With “ZNF384 (peptide sequence: MKDQLLPEK, peptide start residue: 32) (UniProt Q8TF68)” the log2 fold change was -0.00927. For “FAM76A (peptide sequence: AALYACTKCHQR, peptide start residue: 2) (UniProt Q8TAV0)”, the log2 fold change was 0.525.
